# Test results from patent US10562939B2, “Method for significantly increasing lentiviral production” (priority 2016, dated 2020).
# For at least one compound, name, drawing or mass did not settle the structure.
# Target: T1, human HO-2 (Homo sapiens, UniProt P30519)
# T1 construct: The HO-2 gene fragment encoding amino acid residues 30-242 was cloned into a pET28a vector; made in house; host or cells: Escherichia coli BL21 (DE3) Star
# T1 sequence (P30519 30-242): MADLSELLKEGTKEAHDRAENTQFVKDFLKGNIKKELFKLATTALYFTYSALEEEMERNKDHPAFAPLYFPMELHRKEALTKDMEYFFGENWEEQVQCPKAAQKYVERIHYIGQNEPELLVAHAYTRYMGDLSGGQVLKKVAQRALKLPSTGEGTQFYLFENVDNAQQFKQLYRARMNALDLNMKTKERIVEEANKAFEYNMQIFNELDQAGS
# Experiment: Fatty acid binding to HO-2 (crystal structure)
# Conditions: FIG. 2E
# Method: To make the myristate complex, sodium myristate was dissolved in water at 50° C., and mixed with 20 mg/ml protein solution and incubated at 37° C. water bath for 30 min. The complex solution was then used to set up crystallization by mixing with (0.1 M Bis-Tris, (pH 5.5), 28% (w/v) polyethylene glycol 550 monomethyl ether, and 5 mM MgCl2). Crystals were directly flash-frozen in liquid nitrogen.
# The laurate complex crystals were obtained by soaking apo crystals in well solution with 5 mM sodium laurate overnight and transferred to well solution with 35% (w/v) of precipitant before flash-frozen in liquid nitrogen. The crystals belong to space group P212121 and there are four protein molecules in the asymmetric unit.
# X-ray diffraction data sets were collected at beamline 24-ID-E of the Advanced Photon Source (APS). The data were processed with the HKL package (Otwinowski and Minor, 1997). The structures were solved by molecular replacement using entry 2Q32 from the Protein Data Bank as the model. The myristate and laurate were manually added with Coot (Emsley and Cowtan, 2004) and refined with Phenix (Adams et al., 2002).
# The crystal structure was also determined at 2.1 Å resolution of human HO-2 in complex with the C12 fatty acid laurate (FIG. 2E, Table 1B). The crystal was isomorphous to that of the myristate complex. […]
smiles,measurement,value
CCCCCCCCCCCCCCCC(=O)O [palmitate],binding to HO-2,could indeed bind
